Assay results taken from PMC13458699.
Results are given in words; binding and its absence hold for the method and conditions named. In cells and extracts the contact can be indirect. A yes stands for co-enrichment or nearness to the bait. Other partners may have been found. For some of these results: No binding means not detected with the bait. Each block holds one binder with its values, some of them ahead of it.

Sequences of proteins named here, by UniProt entry; tags and fusion partners are left off.
UniProt Q6P3S6: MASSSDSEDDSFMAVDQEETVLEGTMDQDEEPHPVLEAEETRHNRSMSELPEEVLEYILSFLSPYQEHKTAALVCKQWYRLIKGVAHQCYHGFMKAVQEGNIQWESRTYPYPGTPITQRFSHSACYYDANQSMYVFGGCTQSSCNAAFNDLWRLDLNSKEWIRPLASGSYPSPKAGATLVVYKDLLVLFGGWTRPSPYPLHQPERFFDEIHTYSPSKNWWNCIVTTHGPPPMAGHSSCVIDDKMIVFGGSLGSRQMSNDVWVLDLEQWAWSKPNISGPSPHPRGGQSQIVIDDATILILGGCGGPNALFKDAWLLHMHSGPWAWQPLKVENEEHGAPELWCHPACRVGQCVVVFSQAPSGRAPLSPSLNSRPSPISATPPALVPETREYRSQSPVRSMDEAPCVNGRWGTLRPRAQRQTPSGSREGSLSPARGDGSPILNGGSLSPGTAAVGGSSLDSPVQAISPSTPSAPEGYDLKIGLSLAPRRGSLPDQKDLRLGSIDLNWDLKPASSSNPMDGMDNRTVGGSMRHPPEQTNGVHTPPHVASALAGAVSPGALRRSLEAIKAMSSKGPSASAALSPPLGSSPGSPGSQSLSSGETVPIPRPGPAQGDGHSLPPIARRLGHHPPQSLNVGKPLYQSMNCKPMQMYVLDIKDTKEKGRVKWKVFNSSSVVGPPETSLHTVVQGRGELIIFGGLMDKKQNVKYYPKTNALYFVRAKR

Columns and labels:
[1] = molecular target: T1, CCDC6 (endogenous, RPE1 cells) (human (endogenous in RPE1)), Q16204; assay: affinity purification with mass spectrometry; IP with an anti-CCDC6 antibody from RPE1 lysates, proteins at endogenous levels; WT compared with CCDC6-/-, FBXO42-/- and PPP4C knock-down (shRNA) cells; details: remark: other sources report otherwise
T1 chain: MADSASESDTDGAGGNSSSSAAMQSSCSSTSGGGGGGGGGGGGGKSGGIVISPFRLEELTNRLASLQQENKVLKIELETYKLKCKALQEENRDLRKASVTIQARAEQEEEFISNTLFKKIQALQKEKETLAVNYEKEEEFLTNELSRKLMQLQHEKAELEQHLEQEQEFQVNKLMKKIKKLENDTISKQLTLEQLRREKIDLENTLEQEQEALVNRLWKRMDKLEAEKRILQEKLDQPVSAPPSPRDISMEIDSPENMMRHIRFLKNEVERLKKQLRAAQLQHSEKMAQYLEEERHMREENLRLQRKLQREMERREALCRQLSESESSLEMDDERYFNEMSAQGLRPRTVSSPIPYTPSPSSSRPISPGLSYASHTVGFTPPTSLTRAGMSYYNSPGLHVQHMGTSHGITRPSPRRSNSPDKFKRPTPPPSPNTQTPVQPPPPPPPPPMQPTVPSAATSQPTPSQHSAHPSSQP

[2] = molecular target: FBXO42 (endogenous, HAP1 cells) (human (endogenous in HAP1)) (UniProt Q6P3S6); assay: affinity purification with mass spectrometry; IP of endogenous FBXO42 with anti-FBXO42 antibody from HAP1 lysates, WT compared with FBXO42-/- cells; cells treated with 10 uM MG132 for the last 4 h; lysis buffer 100 mM Tris pH 8, 150 mM NaCl, 0.1% NP-40
[3] = molecular target: T2, CCDC6 (endogenous, RPE1 cells) (human (endogenous in RPE1)) (UniProt Q16204); assay: affinity purification with mass spectrometry; IP with an anti-CCDC6 antibody from RPE1 lysates, proteins at endogenous levels; WT compared with CCDC6-/-, FBXO42-/- and PPP4C knock-down (shRNA) cells
T2 sequence: T1 chain

- binding [1]: no binding
B1: PPP4R3A (endogenous, RPE1 cells), Q6IN85 1-833 (protein)
chain: MTDTRRRVKVYTLNEDRQWDDRGTGHVSSGYVERLKGMSLLVRAESDGSLLLESKINPNTAYQKQQDTLIVWSEAENYDLALSFQEKAGCDEIWEKICQVQGKDPSVDITQDLVDESEEERFDDMSSPGLELPSCELSRLEEIAELVASSLPSPLRREKLALALENEGYIKKLLELFHVCEDLENIEGLHHLYEIIKGIFLLNRTALFEVMFSEECIMDVIGCLEYDPALSQPRKHREFLTKTAKFKEVIPISDPELKQKIHQTYRVQYIQDMVLPTPSVFEENMLSTLHSFIFFNKVEIVGMLQEDEKFLTDLFAQLTDEATDEEKRQELVNFLKEFCAFSQTLQPQNRDAFFKTLSNMGILPALEVILGMDDTQVRSAATDIFSYLVEYNPSMVREFVMQEAQQNDDVSKKLTEQKITSKDILLINLIIEHMICDTDPELGGAVQLMGLLRTLVDPENMLATANKTEKTEFLGFFYKHCMHVLTAPLLANTTEDKPSKDDFQTAQLLALVLELLTFCVEHHTYHIKNYIINKDILRRVLVLMASKHAFLALCALRFKRKIIGLKDEFYNRYIMKSFLFEPVVKAFLNNGSRYNLMNSAIIEMFEFIRVEDIKSLTAHVIENYWKALEDVDYVQTFKGLKLRFEQQRERQDNPKLDSMRSILRNHRYRRDARTLEDEEEMWFNTDEDDMEDGEAVVSPSDKTKNDDDIMDPISKFMERKKLKESEEKEVLLKTNLSGRQSPSFKLSLSSGTKTNLTSQSSTTNLPGSPGSPGSPGSPGSPGSVPKNTSQTAAITTKGGLVGLVDYPDDDEDDDEDEDKEDTLPLSKKAKFDS

- binding [2]: binds
B2: PPP4R2 (endogenous, HAP1 cells) (protein, UniProt Q9NY27 1-417)
chain: MDVERLQEALKDFEKRGKKEVCPVLDQFLCHVAKTGETMIQWSQFKGYFIFKLEKVMDDFRTSAPEPRGPPNPNVEYIPFDEMKERILKIVTGFNGIPFTIQRLCELLTDPRRNYTGTDKFLRGVEKNVMVVSCVYPSSEKNNSNSLNRMNGVMFPGNSPSYTERSNINGPGTPRPLNRPKVSLSAPMTTNGLPESTDSKEANLQQNEEKNHSDSSTSESEVSSVSPLKNKHPDEDAVEAEGHEVKRLRFDKEGEVRETASQTTSSEISSVMVGETEASSSSQDKDKDSRCTRQHCTEEDEEEDEEEEEESFMTSREMIPERKNQEKESDDALTVNEETSEENNQMEESDVSQAEKDLLHSEGSENEGPVSSSSSDCRETEELVGSNSSKTGEILSESSMENDDEATEVTDEPMEQD

- binding [3]: no binding
B3: PPP4R2 (endogenous, RPE1 cells) (protein, UniProt Q9NY27 1-417)
chain: B2 chain

- binding [3]: binds
B4: PPP4R1 (endogenous, RPE1 cells) (protein, UniProt Q8TF05 1-950)
chain: MADLSLLQEDLQEDADGFGVDDYSSESDVIIIPSALDFVSQDEMLTPLGRLDKYAASENIFNRQMVARSLLDTLREVCDDERDCIAVLERISRLADDSEPTVRAELMEQVPHIALFCQENRPSIPYAFSKFLLPIVVRYLADQNNQVRKTSQAALLALLEQELIERFDVETKVCPVLIELTAPDSNDDVKTEAVAIMCKMAPMVGKDITERLILPRFCEMCCDCRMFHVRKVCAANFGDICSVVGQQATEEMLLPRFFQLCSDNVWGVRKACAECFMAVSCATCQEIRRTKLSALFINLISDPSRWVRQAAFQSLGPFISTFANPSSSGQYFKEESKSSEEMSVENKNRTRDQEAPEDVQVRPEDTPSDLSVSNSSVILENTMEDHAAEASGKPLGEISVPLDSSLLCTLSSESHQEAASNENDKKPGNYKSMLRPEVGTTSQDSALLDQELYNSFHFWRTPLPEIDLDIELEQNSGGKPSPEGPEEESEGPVPSSPNITMATRKELEEMIENLEPHIDDPDVKAQVEVLSAALRASSLDAHEETISIEKRSDLQDELDINELPNCKINQEDSVPLISDAVENMDSTLHYIHSDSDLSNNSSFSPDEERRTKVQDVVPQALLDQYLSMTDPSRAQTVDTEIAKHCAYSLPGVALTLGRQNWHCLRETYETLASDMQWKVRRTLAFSIHELAVILGDQLTAADLVPIFNGFLKDLDEVRIGVLKHLHDFLKLLHIDKRREYLYQLQEFLVTDNSRNWRFRAELAEQLILLLELYSPRDVYDYLRPIALNLCADKVSSVRWISYKLVSEMVKKLHAATPPTFGVDLINELVENFGRCPKWSGRQAFVFVCQTVIEDDCLPMDQFAVHLMPHLLTLANDRVPNVRVLLAKTLRQTLLEKDYFLASASCHQEAVEQTIMALQMDRDSDVKYFASIHPASTKISEDAMSTASSTY

Further lines, the binder ahead of its results:

B5: PPP4R1 (endogenous, HAP1 cells) (protein, UniProt Q8TF05 1-950)
chain: B4 chain
- binding [2]: binds

B6: PPP4C (endogenous, RPE1 cells) (protein, UniProt P60510 1-307)
chain: MAEISDLDRQIEQLRRCELIKESEVKALCAKAREILVEESNVQRVDSPVTVCGDIHGQFYDLKELFRVGGDVPETNYLFMGDFVDRGFYSVETFLLLLALKVRYPDRITLIRGNHESRQITQVYGFYDECLRKYGSVTVWRYCTEIFDYLSLSAIIDGKIFCVHGGLSPSIQTLDQIRTIDRKQEVPHDGPMCDLLWSDPEDTTGWGVSPRGAGYLFGSDVVAQFNAANDIDMICRAHQLVMEGYKWHFNETVLTVWSAPNYCYRCGNVAAILELDEHLQKDFIIFEAAPQETRGIPSKKPVADYFL
- binding [3]: binds

B7: PPP4C, protein phosphatase 4 catalytic subunit (endogenous, HAP1 cells) (protein, UniProt P60510 1-307)
chain: B6 chain
- binding [2]: binds
